# Assay results taken from article PMC8384837.
# Numbering of substitutions follows the chain as printed. Some of the results follow. For some of these results: At the low end of the ranking the order means little. For some of these results: The source does not settle which construct or isoform was used.
# Key:
# Conditions in all cases: yeast three-hybrid, YBZ-1, SC-Leu-His + 0.5 mM 3-AT, 4 days
# [1] = target: T1, PUM1 PUF domain R3-THE R4-TFR C935T + R936H + Q939E + N971T + H972F + Q975R (UniProt Q14671)
# T1 sequence: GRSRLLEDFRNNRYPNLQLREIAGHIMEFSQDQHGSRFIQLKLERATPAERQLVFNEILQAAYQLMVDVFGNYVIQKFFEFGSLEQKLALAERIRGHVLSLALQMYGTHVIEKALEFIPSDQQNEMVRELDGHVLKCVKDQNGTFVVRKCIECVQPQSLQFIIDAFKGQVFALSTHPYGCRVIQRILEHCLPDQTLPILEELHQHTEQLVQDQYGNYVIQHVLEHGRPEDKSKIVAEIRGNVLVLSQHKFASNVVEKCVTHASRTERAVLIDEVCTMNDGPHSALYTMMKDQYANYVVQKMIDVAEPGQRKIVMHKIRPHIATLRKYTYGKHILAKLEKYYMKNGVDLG
# [2] = target: T2, PUM1 PUF domain R3-THE R4-TFR R7-NPG C935T + R936H + Q939E + N971T + H972F + Q975R + S1079N + N1080P + E1083G (UniProt Q14671)
# T2 sequence: T1 sequence with S252N, N253P, E256G
# [3] = target: T3, PUM1 PUF domain R5-PHQ R6-SWD C1007P + R1008H + N1043S + Y1044W + Q1047D (UniProt Q14671)
# T3 sequence: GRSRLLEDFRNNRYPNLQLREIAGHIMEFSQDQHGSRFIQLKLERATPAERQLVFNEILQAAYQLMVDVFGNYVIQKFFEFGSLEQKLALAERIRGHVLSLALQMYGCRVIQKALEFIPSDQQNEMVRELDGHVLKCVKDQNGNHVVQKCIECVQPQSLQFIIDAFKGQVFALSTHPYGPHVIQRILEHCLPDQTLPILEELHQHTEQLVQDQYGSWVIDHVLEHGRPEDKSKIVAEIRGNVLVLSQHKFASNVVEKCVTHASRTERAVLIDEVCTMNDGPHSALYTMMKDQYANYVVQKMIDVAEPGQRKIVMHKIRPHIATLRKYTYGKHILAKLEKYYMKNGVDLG
# [4] = target: T4, PUM1 PUF domain R6-SWD R7-NPG N1043S + Y1044W + Q1047D + S1079N + N1080P + E1083G (Homo sapiens) (UniProt Q14671)
# T4 sequence: T3 sequence with P180C, H181R, S252N, N253P, E256G
# [5] = target: T5, PUM1 PUF domain R3-THE R4-TFR R7-NPG C935T + R936H + Q939E + N971T + H972F + Q975R + S1079N + N1080P + E1083G (Homo sapiens) (UniProt Q14671)
# T5 sequence: T1 sequence with S252N, N253P, E256G
sequence,measurement,setting,value
GGCUAGAACUAGUGGAUCCCCCGGCGCCCGGCGGCUCGAGCCCGGGUAAGGUUAAAUCGUCUGCAUGCCGCCGGGCGCCAUGCCUGCAGGUCGACUCUAGAAAACAUG,binding signal (log2 enrichment (interaction score)),[1],-6.33
same,binding signal (log2 enrichment (interaction score)),[2],-2.93
same,binding signal (log2 enrichment (interaction score)),[3],-6.6
same,binding signal (log2 enrichment (interaction score)),[4],-1.86
GGCUAGAACUAGUGGAUCCCCCGGCGCCCGGCGGCUCGAGCCCGGGUAAGUGGCGGAAGUCUGCAUGCCGCCGGGCGCCAUGCCUGCAGGUCGACUCUAGAAAACAUG,binding signal (log2 enrichment (interaction score)),[1],< -7.84
same,binding signal (log2 enrichment (interaction score)),[3],< -6.95
GGCUAGAACUAGUGGAUCCCCCGGCGCCCGGCGGCUCGAGCCCGGGUAAGUAGAGGUAGUCUGCAUGCCGCCGGGCGCCAUGCCUGCAGGUCGACUCUAGAAAACAUG,binding signal (log2 enrichment (interaction score)),[1],< -7.32
same,binding signal (log2 enrichment (interaction score)),[3],< -7.14
GGCUAGAACUAGUGGAUCCCCCGGCGCCCGGCGGCUCGAGCCCGGGUAAGUGCGAAUAGUCUGCAUGCCGCCGGGCGCCAUGCCUGCAGGUCGACUCUAGAAAACAUG,binding signal (log2 enrichment (interaction score)),[1],< -6.74
same,binding signal (log2 enrichment (interaction score)),[3],-7.38
GGCUAGAACUAGUGGAUCCCCCGGCGCCCGGCGGCUCGAGCCCGGGUAAGUGGGCGUAGUCUGCAUGCCGCCGGGCGCCAUGCCUGCAGGUCGACUCUAGAAAACAUG,binding signal (log2 enrichment (interaction score)),[1],< -8.25
same,binding signal (log2 enrichment (interaction score)),[2],-2.9
same,binding signal (log2 enrichment (interaction score)),[3],-7.08
same,binding signal (log2 enrichment (interaction score)),[4],-0.08
GGCUAGAACUAGUGGAUCCCCCGGCGCCCGGCGGCUCGAGCCCGGGUAAGUGAAAACUGUCUGCAUGCCGCCGGGCGCCAUGCCUGCAGGUCGACUCUAGAAAACAUG,binding signal (log2 enrichment (interaction score)),[1],-5.78
same,binding signal (log2 enrichment (interaction score)),[3],-7.84
GGCUAGAACUAGUGGAUCCCCCGGCGCCCGGCGGCUCGAGCCCGGGUAAGCGUAAGUAGUCUGCAUGCCGCCGGGCGCCAUGCCUGCAGGUCGACUCUAGAAAACAUG,binding signal (log2 enrichment (interaction score)),[1],-6.42
same,binding signal (log2 enrichment (interaction score)),[3],< -7.38
GGCUAGAACUAGUGGAUCCCCCGGCGCCCGGCGGCUCGAGCCCGGGUAAGUGUUCAUUGUCUGCAUGCCGCCGGGCGCCAUGCCUGCAGGUCGACUCUAGAAAACAUG,binding signal (log2 enrichment (interaction score)),[1],-7.34
same,binding signal (log2 enrichment (interaction score)),[3],-7.61
GGCUAGAACUAGUGGAUCCCCCGGCGCCCGGCGGCUCGAGCCCGGGUAAGAUCUAAUCGUCUGCAUGCCGCCGGGCGCCAUGCCUGCAGGUCGACUCUAGAAAACAUG,binding signal (log2 enrichment (interaction score)),[5],-1.55
same,binding signal (log2 enrichment (interaction score)),[3],< -8.82
GGCUAGAACUAGUGGAUCCCCCGGCGCCCGGCGGCUCGAGCCCGGGUAAGUUGAUAUCGUCUGCAUGCCGCCGGGCGCCAUGCCUGCAGGUCGACUCUAGAAAACAUG,binding signal (log2 enrichment (interaction score)),[5],< -1.05
GGCUAGAACUAGUGGAUCCCCCGGCGCCCGGCGGCUCGAGCCCGGGUAAGUUGUAGACGUCUGCAUGCCGCCGGGCGCCAUGCCUGCAGGUCGACUCUAGAAAACAUG,binding signal (log2 enrichment (interaction score)),[5],< -1.51
GGCUAGAACUAGUGGAUCCCCCGGCGCCCGGCGGCUCGAGCCCGGGUAAGCUGAUGUGGUCUGCAUGCCGCCGGGCGCCAUGCCUGCAGGUCGACUCUAGAAAACAUG,binding signal (log2 enrichment (interaction score)),[1],-6.75
same,binding signal (log2 enrichment (interaction score)),[4],-1.82
GGCUAGAACUAGUGGAUCCCCCGGCGCCCGGCGGCUCGAGCCCGGGUAAGUGUUCGAAGUCUGCAUGCCGCCGGGCGCCAUGCCUGCAGGUCGACUCUAGAAAACAUG,binding signal (log2 enrichment (interaction score)),[1],-6.08
same,binding signal (log2 enrichment (interaction score)),[4],-0.7
GGCUAGAACUAGUGGAUCCCCCGGCGCCCGGCGGCUCGAGCCCGGGUAAGGAUACAUAGUCUGCAUGCCGCCGGGCGCCAUGCCUGCAGGUCGACUCUAGAAAACAUG,binding signal (log2 enrichment (interaction score)),[1],< -6.74
same,binding signal (log2 enrichment (interaction score)),[4],-0.24
GGCUAGAACUAGUGGAUCCCCCGGCGCCCGGCGGCUCGAGCCCGGGUAAGCUUACGGAGUCUGCAUGCCGCCGGGCGCCAUGCCUGCAGGUCGACUCUAGAAAACAUG,binding signal (log2 enrichment (interaction score)),[5],5.57
GGCUAGAACUAGUGGAUCCCCCGGCGCCCGGCGGCUCGAGCCCGGGUAAGUUCAAAUAGUCUGCAUGCCGCCGGGCGCCAUGCCUGCAGGUCGACUCUAGAAAACAUG,binding signal (log2 enrichment (interaction score)),[1],-6.07
same,binding signal (log2 enrichment (interaction score)),[3],-7.67
same,binding signal (log2 enrichment (interaction score)),[4],-1.39
GGCUAGAACUAGUGGAUCCCCCGGCGCCCGGCGGCUCGAGCCCGGGUAAGUUAAAGAGGUCUGCAUGCCGCCGGGCGCCAUGCCUGCAGGUCGACUCUAGAAAACAUG,binding signal (log2 enrichment (interaction score)),[5],-1.21
GGCUAGAACUAGUGGAUCCCCCGGCGCCCGGCGGCUCGAGCCCGGGUAAGUUGACUAAGUCUGCAUGCCGCCGGGCGCCAUGCCUGCAGGUCGACUCUAGAAAACAUG,binding signal (log2 enrichment (interaction score)),[1],-6.66
same,binding signal (log2 enrichment (interaction score)),[3],-7.78
same,binding signal (log2 enrichment (interaction score)),[4],-1.41
GGCUAGAACUAGUGGAUCCCCCGGCGCCCGGCGGCUCGAGCCCGGGUAAGUGUAAUAGGUCUGCAUGCCGCCGGGCGCCAUGCCUGCAGGUCGACUCUAGAAAACAUG,binding signal (log2 enrichment (interaction score)),[1],-7.19
same,binding signal (log2 enrichment (interaction score)),[4],-1.48

# Quoted at random: two entries already listed
sequence,measurement,setting,value
GGCUAGAACUAGUGGAUCCCCCGGCGCCCGGCGGCUCGAGCCCGGGUAAGCUGAUGUGGUCUGCAUGCCGCCGGGCGCCAUGCCUGCAGGUCGACUCUAGAAAACAUG,binding signal (log2 enrichment (interaction score)),[4],-1.82
GGCUAGAACUAGUGGAUCCCCCGGCGCCCGGCGGCUCGAGCCCGGGUAAGGUUAAAUCGUCUGCAUGCCGCCGGGCGCCAUGCCUGCAGGUCGACUCUAGAAAACAUG,binding signal (log2 enrichment (interaction score)),[3],-6.6
